No constants are given. Whether binding was seen depends on the method and setting. Binding seen in cells or lysates may run through a third protein. Some entries that bind do so weakly or less than the wild type.
Target: T1, CD146 (mouse (endogenous in 10T1/2)) (UniProt Q8R2Y2)
T1 sequence: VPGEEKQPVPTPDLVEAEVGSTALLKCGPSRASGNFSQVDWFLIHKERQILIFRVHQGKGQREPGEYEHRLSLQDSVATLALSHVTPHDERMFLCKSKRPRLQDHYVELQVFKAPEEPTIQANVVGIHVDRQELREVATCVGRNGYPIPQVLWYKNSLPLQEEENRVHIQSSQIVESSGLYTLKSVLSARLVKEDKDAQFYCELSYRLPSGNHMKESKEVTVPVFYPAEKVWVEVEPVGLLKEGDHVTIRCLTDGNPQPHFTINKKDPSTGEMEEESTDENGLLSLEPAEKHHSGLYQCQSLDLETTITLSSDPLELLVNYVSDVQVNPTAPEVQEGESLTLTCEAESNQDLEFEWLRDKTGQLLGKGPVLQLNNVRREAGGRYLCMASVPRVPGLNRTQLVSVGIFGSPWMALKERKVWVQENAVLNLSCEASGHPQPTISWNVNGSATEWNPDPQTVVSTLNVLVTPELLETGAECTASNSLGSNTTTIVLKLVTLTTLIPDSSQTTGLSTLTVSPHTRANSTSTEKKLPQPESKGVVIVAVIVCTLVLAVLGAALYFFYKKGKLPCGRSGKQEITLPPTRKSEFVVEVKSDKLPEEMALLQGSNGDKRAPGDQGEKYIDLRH
Assay: co-IP; endogenous proteins in 10T1/2 cells, with PDGF-B (20 ng/mL); also after Cd146-siRNA, Cd146-siRNA plus a Cd146-expressing plasmid, or in the presence of mIgG or AA98 (50 μg/mL); which protein was precipitated is not told

Chains of the proteins cited; added tags and fusions are not shown. Residues count along the entry.
UniProt P05622, residues 32-1098: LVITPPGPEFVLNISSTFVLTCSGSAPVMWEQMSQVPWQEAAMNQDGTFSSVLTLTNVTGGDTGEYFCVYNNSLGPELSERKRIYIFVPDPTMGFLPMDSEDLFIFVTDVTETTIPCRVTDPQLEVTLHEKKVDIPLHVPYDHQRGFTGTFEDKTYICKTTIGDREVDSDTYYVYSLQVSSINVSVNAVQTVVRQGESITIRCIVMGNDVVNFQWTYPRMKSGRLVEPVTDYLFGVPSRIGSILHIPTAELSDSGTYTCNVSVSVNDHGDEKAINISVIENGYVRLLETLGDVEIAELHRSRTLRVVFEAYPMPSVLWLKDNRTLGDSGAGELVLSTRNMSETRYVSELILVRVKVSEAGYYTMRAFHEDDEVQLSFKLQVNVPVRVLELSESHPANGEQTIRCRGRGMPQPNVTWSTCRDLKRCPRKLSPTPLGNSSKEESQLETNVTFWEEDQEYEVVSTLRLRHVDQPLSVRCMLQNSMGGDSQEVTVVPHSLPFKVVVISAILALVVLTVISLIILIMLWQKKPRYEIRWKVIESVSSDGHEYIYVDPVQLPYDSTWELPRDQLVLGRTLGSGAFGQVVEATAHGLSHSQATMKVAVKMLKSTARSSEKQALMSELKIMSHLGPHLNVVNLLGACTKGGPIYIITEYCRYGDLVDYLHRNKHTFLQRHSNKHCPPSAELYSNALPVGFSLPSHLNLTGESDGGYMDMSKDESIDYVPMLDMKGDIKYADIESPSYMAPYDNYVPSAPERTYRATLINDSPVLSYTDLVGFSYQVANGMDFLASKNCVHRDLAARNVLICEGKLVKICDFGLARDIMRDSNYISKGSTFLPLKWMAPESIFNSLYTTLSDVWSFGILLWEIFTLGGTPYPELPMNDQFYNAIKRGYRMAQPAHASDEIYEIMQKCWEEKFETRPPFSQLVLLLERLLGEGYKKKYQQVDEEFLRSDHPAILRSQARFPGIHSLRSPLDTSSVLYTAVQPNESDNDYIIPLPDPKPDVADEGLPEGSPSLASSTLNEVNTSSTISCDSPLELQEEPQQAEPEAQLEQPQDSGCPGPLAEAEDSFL

**Q.** “PDGFRβ (from UniProt P05622 32-1098) (receptor)” was tested. Which binding did it give?
**A.** binds

**Q.** For “phosphorylated PDGFRβ (from UniProt P05622 32-1098) (receptor)”, which binding is on record?
**A.** binds

From paper PMC6053352
